PubChem BioAssay AID743454 | Peter MacCallum Cancer Centre | 2014

Assay: 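Search for knock-downs that restore vorinostat killing in resistant colon cancer cells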 (primary screen)
Cell system: human HCT116-VR colon cancer cells, selected for vorinostat resistance
Reagents: siRNA pool against human genes, 40 nM siRNA pool
Timing: vorinostat for 24 h, read-out about 72 h after transfection
Challenge: vorinostat at 2.5 µM final
Read-out: 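Two measures, CellTiter-Fluor viability and luminescent caspase 3/7 activity, each as fold change against same-plate mock wells, mean of duplicates, then screen-wide robust z-score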
Direction: viability robust z-score: higher = more viable cells than screen typical; caspase robust z-score: higher = more caspase 3/7 activity than screen typical
Rule for the call: 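Hits are knock-downs in viability class RV1/RV2 or caspase class CA1/CA2, excluding ones that killed cells in the no-drug cell-count arm; hits then retested with single siRNAs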
This is a random part of about 18,000 deposited reagents. 450 of them (2.5%) were called active. 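Single biological run; no consistent viability z cut-off exists, so the class columns, not z-scores, define the calls.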

Silencing of SPINT2 (serine peptidase inhibitor, Kunitz type 2) came out at: viability hit class no change; caspase hit class CA1 (caspase activation); viability robust z-score -1.36; caspase robust z-score 6.08; active. For PTPRZ1 (protein tyrosine phosphatase receptor type Z1), the values are viability hit class no change; caspase hit class no change; viability robust z-score -0.03; caspase robust z-score 1.18; inactive. Knock-down of STEAP2 (STEAP2 metalloreductase) resulted in: viability hit class no change; caspase hit class no change; viability robust z-score 0.44; caspase robust z-score 0.13; inactive. Knock-down of HLA-DRB3 (major histocompatibility complex, class II, DR beta 3) gave: viability hit class no change; caspase hit class no change; viability robust z-score -3.27; caspase robust z-score 2.43; inactive. With knock-down of DNER (delta/notch like EGF repeat containing), the record shows viability hit class no change; caspase hit class CA2 (caspase activation); viability robust z-score -2.54; caspase robust z-score 5.98; active. With knock-down of DEFB103A (defensin beta 103A), the screen gave viability hit class no change; caspase hit class no change; viability robust z-score 0.5; caspase robust z-score -0.21; inactive.

Silencing of TRIM25 (tripartite motif containing 25) gave: viability hit class no change; caspase hit class no change; viability robust z-score -0.94; caspase robust z-score 1.08; inactive. After knock-down of ZNF804B (zinc finger protein 804B), the record shows viability hit class no change; caspase hit class no change; viability robust z-score -0.38; caspase robust z-score -0.51; inactive. Depletion of GCSH (glycine cleavage system protein H) resulted in: viability hit class no change; caspase hit class no change; viability robust z-score 0.16; caspase robust z-score -0.24; inactive. After knock-down of TYMP (thymidine phosphorylase) the results were viability hit class no change; caspase hit class no change; viability robust z-score 0.34; caspase robust z-score 0.62; inactive. LYST (lysosomal trafficking regulator) showed viability hit class no change; caspase hit class no change; viability robust z-score 0.76; caspase robust z-score 0.97; inactive. After knock-down of BEX1 (brain expressed X-linked 1), the screen gave viability hit class no change; caspase hit class no change; viability robust z-score 1.55; caspase robust z-score -0.28; inactive.

BRF1 (BRF1 general transcription factor IIIB subunit) gave viability hit class no change; caspase hit class no change; viability robust z-score -1.34; caspase robust z-score 2.23; inactive.

Looked up above.
BRF1 (BRF1 general transcription factor IIIB subunit), caspase robust z-score → 2.23
Value for BEX1 (brain expressed X-linked 1) under “viability robust z-score”: 1.55

The listing continues.
Knock-down of POLR3A (RNA polymerase III subunit A) came out at: viability hit class no change; caspase hit class no change; viability robust z-score -2.38; caspase robust z-score -1.14; inactive. Depletion of TMEM68 (transmembrane protein 68) came out at: viability hit class no change; caspase hit class no change; viability robust z-score -0.09; caspase robust z-score -0.57; inactive. Depletion of COX18 (cytochrome c oxidase assembly factor COX18) resulted in: viability hit class no change; caspase hit class no change; viability robust z-score 0.28; caspase robust z-score -0.01; inactive. Against RAB32 (RAB32, member RAS oncogene family), the values are viability hit class no change; caspase hit class no change; viability robust z-score -1.32; caspase robust z-score -0.9; inactive. For NPAP1 (nuclear pore associated protein 1), the entry reads viability hit class no change; caspase hit class no change; viability robust z-score -1.38; caspase robust z-score 1.32; inactive. Silencing of TNIP1 (TNFAIP3 interacting protein 1) resulted in: viability hit class no change; caspase hit class no change; viability robust z-score 0.82; caspase robust z-score -0.7; inactive.

After knock-down of NRG1 (neuregulin 1) the results were viability hit class no change; caspase hit class no change; viability robust z-score -0.66; caspase robust z-score 0.49; inactive. Against C1orf52 (chromosome 1 open reading frame 52) the deposit lists viability hit class RV2 (reduced viability); caspase hit class no change; viability robust z-score -2.96; caspase robust z-score 3.24; active.
